No constants are given. Whether binding was seen depends on the method and setting. Binding seen in cells or lysates may run through a third protein. Here binding means that the protein was enriched with, or labelled near, the bait; the list need not be complete.
What follows are molecules tested against T1, Gadd45a TAP (mouse) (UniProt P48316) (assay: affinity purification with mass spectrometry; tandem affinity purification of Gadd45a TAP from pooled protein extracts of TA muscles of 48 mice, 10 days post-transfection; anti-FLAG magnetic beads, elution with 3x FLAG peptide, then S-protein agarose; 4 °C; 50 mM HEPES pH 7.0, 150 mM NaCl, 5 mM MgCl2, 2 mM EGTA, 0.1-0.5% Triton X-100, 0.5 mM DTT; control: muscles transfected with empty TAP plasmid).
T1 sequence: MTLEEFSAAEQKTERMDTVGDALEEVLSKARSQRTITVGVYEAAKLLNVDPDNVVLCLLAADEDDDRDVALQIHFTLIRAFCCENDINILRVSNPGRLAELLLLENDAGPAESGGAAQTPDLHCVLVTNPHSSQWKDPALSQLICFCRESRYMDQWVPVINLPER

Sequences of proteins named here, by UniProt entry; tags and fusion partners are left off.
UniProt P52332: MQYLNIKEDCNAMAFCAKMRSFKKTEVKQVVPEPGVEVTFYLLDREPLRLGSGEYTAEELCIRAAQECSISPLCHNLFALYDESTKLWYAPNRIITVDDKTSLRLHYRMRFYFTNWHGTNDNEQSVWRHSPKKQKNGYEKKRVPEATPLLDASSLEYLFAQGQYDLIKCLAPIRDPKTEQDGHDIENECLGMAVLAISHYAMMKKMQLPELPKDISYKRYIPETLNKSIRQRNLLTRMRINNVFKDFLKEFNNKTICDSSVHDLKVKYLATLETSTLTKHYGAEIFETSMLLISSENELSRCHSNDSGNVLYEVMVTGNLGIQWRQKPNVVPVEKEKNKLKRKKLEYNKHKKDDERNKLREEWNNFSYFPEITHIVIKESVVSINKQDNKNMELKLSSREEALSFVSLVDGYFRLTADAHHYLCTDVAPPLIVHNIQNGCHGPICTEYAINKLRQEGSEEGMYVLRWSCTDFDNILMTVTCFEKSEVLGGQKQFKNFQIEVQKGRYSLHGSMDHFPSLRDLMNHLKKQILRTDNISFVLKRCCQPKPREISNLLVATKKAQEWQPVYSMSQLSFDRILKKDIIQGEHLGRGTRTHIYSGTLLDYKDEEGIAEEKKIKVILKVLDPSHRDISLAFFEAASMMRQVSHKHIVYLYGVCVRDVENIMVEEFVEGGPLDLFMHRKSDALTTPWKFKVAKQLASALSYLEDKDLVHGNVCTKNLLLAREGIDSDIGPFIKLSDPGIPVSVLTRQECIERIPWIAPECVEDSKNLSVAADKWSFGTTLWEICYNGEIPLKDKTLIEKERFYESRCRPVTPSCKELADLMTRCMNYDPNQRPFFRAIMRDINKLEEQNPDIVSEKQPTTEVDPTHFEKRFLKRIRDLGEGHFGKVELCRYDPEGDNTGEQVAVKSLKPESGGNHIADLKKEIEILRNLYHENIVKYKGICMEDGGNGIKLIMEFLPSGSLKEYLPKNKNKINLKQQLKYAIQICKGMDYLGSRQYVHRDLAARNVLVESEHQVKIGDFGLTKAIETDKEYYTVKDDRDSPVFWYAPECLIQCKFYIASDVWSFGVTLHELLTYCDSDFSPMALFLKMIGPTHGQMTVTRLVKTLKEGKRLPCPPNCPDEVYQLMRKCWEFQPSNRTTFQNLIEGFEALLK
UniProt Q8C050: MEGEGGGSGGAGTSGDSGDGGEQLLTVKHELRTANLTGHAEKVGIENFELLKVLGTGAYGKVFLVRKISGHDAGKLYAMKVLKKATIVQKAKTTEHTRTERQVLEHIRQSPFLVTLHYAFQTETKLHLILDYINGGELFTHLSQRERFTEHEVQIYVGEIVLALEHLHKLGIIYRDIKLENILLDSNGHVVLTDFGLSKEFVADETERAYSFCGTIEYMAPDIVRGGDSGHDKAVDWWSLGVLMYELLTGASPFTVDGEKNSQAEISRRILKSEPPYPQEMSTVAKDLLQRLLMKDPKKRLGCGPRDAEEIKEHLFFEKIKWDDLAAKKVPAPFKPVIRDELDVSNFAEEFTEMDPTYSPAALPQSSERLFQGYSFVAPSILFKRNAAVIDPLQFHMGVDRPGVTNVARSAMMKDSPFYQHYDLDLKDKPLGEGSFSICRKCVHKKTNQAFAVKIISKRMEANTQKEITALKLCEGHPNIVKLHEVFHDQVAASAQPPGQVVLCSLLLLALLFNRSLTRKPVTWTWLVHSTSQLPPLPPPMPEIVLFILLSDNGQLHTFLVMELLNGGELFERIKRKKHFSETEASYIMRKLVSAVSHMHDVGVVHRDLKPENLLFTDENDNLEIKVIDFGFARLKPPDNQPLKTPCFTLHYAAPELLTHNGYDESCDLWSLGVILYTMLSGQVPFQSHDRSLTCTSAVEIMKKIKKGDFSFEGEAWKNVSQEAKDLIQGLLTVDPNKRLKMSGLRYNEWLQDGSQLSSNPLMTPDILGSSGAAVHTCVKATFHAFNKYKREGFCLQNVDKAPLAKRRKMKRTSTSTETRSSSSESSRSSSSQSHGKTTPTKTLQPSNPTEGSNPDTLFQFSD
UniProt Q9Z2B9: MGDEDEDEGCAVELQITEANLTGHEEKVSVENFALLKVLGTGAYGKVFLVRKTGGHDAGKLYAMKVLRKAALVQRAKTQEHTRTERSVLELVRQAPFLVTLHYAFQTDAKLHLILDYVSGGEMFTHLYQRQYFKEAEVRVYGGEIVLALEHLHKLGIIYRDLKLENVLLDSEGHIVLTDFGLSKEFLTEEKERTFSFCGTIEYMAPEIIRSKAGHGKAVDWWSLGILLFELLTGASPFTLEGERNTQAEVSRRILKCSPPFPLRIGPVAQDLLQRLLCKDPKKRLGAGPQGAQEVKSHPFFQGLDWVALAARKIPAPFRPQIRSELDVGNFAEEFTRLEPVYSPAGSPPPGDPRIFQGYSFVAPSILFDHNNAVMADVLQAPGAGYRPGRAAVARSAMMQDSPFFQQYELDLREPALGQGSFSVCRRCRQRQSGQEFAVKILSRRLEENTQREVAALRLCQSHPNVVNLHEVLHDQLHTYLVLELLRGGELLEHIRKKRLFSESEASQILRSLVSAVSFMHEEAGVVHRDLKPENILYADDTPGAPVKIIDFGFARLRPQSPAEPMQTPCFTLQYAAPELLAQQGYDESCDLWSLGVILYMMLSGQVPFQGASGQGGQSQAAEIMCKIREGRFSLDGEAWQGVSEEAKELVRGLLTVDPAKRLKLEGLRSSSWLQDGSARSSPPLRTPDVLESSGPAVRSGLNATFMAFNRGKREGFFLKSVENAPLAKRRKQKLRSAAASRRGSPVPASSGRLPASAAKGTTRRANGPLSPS
UniProt Q9QZL0: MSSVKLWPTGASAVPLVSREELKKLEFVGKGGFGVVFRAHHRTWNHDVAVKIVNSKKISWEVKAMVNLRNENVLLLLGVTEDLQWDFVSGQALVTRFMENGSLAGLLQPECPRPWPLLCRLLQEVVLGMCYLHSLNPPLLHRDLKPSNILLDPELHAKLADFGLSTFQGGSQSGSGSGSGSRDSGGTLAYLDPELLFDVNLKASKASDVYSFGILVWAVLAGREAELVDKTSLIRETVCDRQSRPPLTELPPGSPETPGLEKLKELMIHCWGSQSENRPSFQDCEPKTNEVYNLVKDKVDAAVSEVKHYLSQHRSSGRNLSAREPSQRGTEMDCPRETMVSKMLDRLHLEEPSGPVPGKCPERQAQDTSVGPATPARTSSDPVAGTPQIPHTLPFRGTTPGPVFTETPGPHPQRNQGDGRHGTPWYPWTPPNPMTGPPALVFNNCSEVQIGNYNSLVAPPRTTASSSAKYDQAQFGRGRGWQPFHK
UniProt P18654: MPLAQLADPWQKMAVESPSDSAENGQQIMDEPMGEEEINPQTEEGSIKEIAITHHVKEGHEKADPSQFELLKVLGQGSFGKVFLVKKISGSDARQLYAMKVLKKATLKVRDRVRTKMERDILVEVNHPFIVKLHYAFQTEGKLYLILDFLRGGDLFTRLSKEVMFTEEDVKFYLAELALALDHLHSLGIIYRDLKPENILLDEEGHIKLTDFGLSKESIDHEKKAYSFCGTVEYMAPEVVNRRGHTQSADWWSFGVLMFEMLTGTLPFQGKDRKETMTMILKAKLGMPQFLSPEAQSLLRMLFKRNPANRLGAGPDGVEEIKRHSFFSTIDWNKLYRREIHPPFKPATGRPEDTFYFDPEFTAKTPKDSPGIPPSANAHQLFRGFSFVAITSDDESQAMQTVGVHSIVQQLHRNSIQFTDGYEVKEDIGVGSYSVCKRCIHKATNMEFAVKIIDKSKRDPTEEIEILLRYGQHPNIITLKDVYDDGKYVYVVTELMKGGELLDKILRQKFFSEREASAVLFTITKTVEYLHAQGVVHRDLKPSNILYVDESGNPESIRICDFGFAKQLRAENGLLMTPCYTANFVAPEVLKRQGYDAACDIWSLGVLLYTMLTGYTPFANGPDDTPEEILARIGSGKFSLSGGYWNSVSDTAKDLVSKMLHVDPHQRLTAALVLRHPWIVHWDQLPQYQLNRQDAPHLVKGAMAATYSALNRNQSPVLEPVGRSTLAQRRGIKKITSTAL

Molecule	binding
JAK1 (from UniProt P52332 1-1153) (enzyme)	binds
MSK1 (from UniProt Q8C050 1-863) (enzyme)	binds
MSK2 (from UniProt Q9Z2B9 1-773) (enzyme)	binds
RIPK3 (from UniProt Q9QZL0 1-486) (enzyme)	binds
RSK2 (from UniProt P18654 1-740) (enzyme)	binds
Raf-1 (from UniProt Q99N57 1-648) (enzyme)	binds
RIO kinase 3 (enzyme, UniProt Q9DBU3 1-519) MDLVGVSSPEPGPAAAWGPSKCPWATPQNTVSCSLTEVMSEELAKELQLEEEAAAFPEVVVAEGPFISGENIDTSSDLMLAQMLQMEFDREYDAQLRREEKKFNGDSKVSISFENYRKVHPFEDSDSSEDEVDWQDTRDDPYRPAKPIPTPKKGFIGKGKDITTKHDEVVCGRKNTARMENFAPGFQVGDGIGMDLKLSNHVFNALKQHAYSEERRSARLHEKKEHSTAEKAVDPKTRLLMYKMVNSGMLETITGCISTGKESVVFHAYGGSLEDEKEDGKAIPTECAIKVFKTTLNEFKNRDKYIKDDFRFKDRFSKLNPRKIIRMWAEKEMHNLTRMQKAGIPCPTVVLLKKHILVMSFIGHDQVPAPKLKEVKLSNEEMKDAYYQTLHLMQQLYNECTLVHADLSEYNMLWHAGKVWLIDVSQSVEPTHPHGLEFLFRDCRNVSQFFQKGGVTEALNERELFNAVSGLNISADNEADFLAEIEALEKMNEDHIQKNGRKAASFLKDDGSPPVLSAD	binds
A-Raf (enzyme, UniProt P04627 1-604) MEPPRGPPVSGAEPSRAVGTVKVYLPNKQRTVVTVREGMSVYDSLDKALKVRGLNQDCCVVYRLIKGRKTVTAWDTAIAPLDGEELIVEVLEDVPLTMHNFVRKTFFSLAFCDFCLKFLFHGFRCQTCGYKFHQHCSSKVPTVCVDMSTNRRQFYHSIQDLSGGSRQQEAPSNLSVNELLTPQGPSPFTQQRDQEHFSFPAPANPPLQRIRSTSTPNVHMVSTTAPMDSSLMQFTAQSFSTDAAGRGGDGAPRGSPSPASVSSGRKSPHSKLPSEQRERKSLADEKKKVKNLGYRDSGYYWEVPPSEVQLLKRIGTGSFGTVFRGRWHGDVAVKVLKVAQPTAEQAQAFKNEMQVLRKTRHVNILLFMGFMTRPGFAIITQWCEGSSLYHHLHVADTRFDMVQLIDVARQTAQGMDYLHAKNIIHRDLKSNNIFLHEGLTVKIGDFGLATVKTRWSGAQPLEQPSGSVLWMAAEVIRMQDPNPYSFQSDVYAYGVVLYELMTGSLPYSHIGSRDQIIFMVGRGYLSPDLSKIFSNCPKAMRRLLTDCLKFQREERPLFPQILATIELLQRSLPKIERSASEPSLHRTQADELPACLLSAARLVP	binds
